From paper PMC7352364
These are yes or no findings as the source states them, for the method shown. Binding seen in cells or lysates may run through a third protein. Some binding calls cover weakened binding; strength is not graded here.

Chains of the proteins cited; added tags and fusions are not shown. Lines headed by an entry give the natural chain unless they say otherwise; changes in a name come on top.
UniProt P14618: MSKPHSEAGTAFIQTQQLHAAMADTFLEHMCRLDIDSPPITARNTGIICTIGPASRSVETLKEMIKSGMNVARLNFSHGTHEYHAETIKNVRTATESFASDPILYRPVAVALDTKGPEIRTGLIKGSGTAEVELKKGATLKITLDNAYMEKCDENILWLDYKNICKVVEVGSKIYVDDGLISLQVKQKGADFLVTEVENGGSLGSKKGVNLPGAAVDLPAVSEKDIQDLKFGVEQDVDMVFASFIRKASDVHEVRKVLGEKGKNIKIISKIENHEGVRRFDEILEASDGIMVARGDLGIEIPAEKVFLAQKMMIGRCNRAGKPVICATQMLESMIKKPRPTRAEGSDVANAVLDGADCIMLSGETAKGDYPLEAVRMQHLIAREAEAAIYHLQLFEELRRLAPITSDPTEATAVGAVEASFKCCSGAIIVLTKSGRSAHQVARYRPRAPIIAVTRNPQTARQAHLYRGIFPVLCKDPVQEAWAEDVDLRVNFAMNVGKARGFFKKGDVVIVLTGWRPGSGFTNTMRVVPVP
UniProt Q93009: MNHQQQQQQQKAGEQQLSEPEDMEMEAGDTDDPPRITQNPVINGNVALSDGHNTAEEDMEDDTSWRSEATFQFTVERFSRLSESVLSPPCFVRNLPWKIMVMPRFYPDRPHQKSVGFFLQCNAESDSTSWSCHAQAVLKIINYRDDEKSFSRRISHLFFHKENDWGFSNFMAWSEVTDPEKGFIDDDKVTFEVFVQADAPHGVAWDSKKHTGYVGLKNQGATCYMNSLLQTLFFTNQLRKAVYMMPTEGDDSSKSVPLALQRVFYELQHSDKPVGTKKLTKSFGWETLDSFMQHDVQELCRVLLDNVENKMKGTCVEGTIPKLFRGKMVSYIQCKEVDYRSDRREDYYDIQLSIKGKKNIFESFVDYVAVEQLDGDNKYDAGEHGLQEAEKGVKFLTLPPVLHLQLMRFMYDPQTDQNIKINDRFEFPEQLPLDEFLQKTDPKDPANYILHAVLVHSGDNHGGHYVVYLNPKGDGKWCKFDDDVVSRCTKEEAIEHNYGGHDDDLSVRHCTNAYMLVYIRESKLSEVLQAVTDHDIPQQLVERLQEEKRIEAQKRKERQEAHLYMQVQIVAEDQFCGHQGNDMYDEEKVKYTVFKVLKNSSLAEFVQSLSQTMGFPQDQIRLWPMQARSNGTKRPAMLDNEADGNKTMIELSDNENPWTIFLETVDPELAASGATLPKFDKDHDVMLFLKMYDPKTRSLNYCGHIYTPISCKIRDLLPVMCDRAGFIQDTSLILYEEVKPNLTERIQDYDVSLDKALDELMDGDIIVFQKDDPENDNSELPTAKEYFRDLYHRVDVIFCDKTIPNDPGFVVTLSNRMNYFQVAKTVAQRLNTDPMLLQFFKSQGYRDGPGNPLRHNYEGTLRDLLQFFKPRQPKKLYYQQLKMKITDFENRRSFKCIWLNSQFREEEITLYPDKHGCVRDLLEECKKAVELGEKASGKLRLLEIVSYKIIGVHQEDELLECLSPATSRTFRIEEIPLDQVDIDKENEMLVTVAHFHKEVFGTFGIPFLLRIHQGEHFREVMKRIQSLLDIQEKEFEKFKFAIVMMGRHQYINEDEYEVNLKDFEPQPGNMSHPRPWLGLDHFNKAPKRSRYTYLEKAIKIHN

Experiments:
[1] = target: GST-PKM2 fusion protein (UniProt P14618); assay: pull-down; GST-PKM2 on glutathione-sepharose beads rotated with HEK293T lysates overexpressing Myc-HAUSP at 4 °C overnight; western blotting; only the target purified
[2] = target: Flag-PKM2 (pyruvate kinase isoenzyme M2, wild type) (UniProt P14618); assay: co-IP; HEK293T cells co-transfected with Myc-HAUSP and Flag-PKM2 (wild type or mutants); lysates (50 mM Tris-HCl pH 7.5, 1 mM EDTA, 10% glycerol, 300 mM NaCl, 1% Triton X-100) immunoprecipitated with anti-Myc or anti-Flag antibody, 4 °C overnight, protein A/G agarose; western blotting
[3] = target: Flag-PKM2 S346A (UniProt P14618); assay: as above
[4] = target: Flag-PKM2 S97A (UniProt P14618); assay: as above
[5] = target: Flag-PKM2 S57A (UniProt P14618); assay: as above
[6] = target: PKM2, endogenous (human (endogenous in HEK293T)) (UniProt P14618); assay: co-IP; endogenous proteins; HEK293T lysates immunoprecipitated with anti-HAUSP or anti-PKM2 antibody, 4 °C overnight, protein A/G agarose; western blotting

Measured: binding

Myc-HAUSP (herpesvirus-associated ubiquitin-specific protease, wild type) (from UniProt Q93009 1-1102) (enzyme)
not listed: [6]
binds: all other assays above

HAUSP, endogenous (from UniProt Q93009 1-1102) (enzyme)
binds: [6]
